Binding data for one molecule are collected here from publication PMC10000386.

The chains behind the UniProt entries cited, without tags or fusion partners. Where a name states a change or a piece, a line headed by the entry shows the natural chain unless it says otherwise.
UniProt Q07812: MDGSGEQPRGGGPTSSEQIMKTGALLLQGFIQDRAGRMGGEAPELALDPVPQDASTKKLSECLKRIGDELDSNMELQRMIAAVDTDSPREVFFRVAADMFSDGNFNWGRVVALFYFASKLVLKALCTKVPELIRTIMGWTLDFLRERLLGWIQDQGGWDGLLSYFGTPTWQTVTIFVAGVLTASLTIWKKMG

These are yes or no findings as the source states them, for the method shown. Binding seen in cells or lysates may run through a third protein. Binding calls can cover weak binding; strength is not graded here.

The experiment concerns the target Bax ΔBH3 (human) (UniProt Q07812). Description: split reporter; BiFC: VN- and VC-Venus fragment fusions (N-terminal) co-transfected in HeLa cells with an mRFP vector, 30 µM Z-VAD-fmk, 37 °C, 24 h; Venus/mRFP mean fluorescence ratio of mRFP-positive cells by flow cytometry; in some experiments ABT-199, A-1155463 or S63845 added 1 h after transfection (reduced the complexes of Bcl-2, Bcl-XL or Mcl-1 with Bim, Puma and Noxa). (In flow cytometry, cells or beads pass a laser one at a time.)

B1: Noxa (protein, UniProt Q13794 1-54)
chain: MPGKKARKNAQPSPARAPAELEVECATQLRRFGDKLNFRQKLLNLISKLFCSGT
For the molecule B1, the binding result is given as “binds”.
